Source: ChEMBL document CHEMBL3988442, “University of Dundee, Small-Polar-MMV Screening Library” (2021).

Protein sequences, listed by entry. Tags and fused reporters are not part of them.
UniProt E9BF75, entry or part of it: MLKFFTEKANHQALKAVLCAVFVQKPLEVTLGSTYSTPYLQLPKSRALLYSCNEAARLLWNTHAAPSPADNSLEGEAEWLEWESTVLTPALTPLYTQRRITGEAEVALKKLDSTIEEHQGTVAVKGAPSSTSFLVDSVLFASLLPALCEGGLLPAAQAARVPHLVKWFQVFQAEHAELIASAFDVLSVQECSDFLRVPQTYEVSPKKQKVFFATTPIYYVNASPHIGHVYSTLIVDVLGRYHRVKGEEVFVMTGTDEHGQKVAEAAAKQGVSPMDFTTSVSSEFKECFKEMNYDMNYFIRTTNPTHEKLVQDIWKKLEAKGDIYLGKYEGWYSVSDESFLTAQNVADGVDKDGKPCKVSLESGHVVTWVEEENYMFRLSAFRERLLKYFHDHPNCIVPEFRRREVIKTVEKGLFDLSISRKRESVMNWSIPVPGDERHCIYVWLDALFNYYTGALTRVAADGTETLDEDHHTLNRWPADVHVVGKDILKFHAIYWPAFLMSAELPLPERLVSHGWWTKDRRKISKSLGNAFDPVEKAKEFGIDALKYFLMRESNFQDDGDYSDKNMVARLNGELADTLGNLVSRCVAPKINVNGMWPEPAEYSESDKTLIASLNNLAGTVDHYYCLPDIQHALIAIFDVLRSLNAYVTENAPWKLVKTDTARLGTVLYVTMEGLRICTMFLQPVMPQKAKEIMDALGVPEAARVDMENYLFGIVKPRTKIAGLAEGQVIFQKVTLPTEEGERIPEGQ

Results are percentages, as filed. The controls that fix the scale are not given in the record; negative values are as filed. The compounds are a random part of those screened.

LdMetRS: 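Primary screen of methionyl-tRNA synthetase; the read-out is not stated. Target: Methionyl-tRNA synthetase (putative), Leishmania donovani (UniProt E9BF75). The test concentration is not given. Values are per cent inhibition. Size under these conditions: about 68,000 compounds, about 24 of them at 50% or above in at least one test.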
Mtb heat-shock: 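Assay on Mycobacterium tuberculosis, filed only as a heat shock assay from Cornell; the read-out is not stated. The concentration is filed as 10 mM, unlikely as a test dose, so the dose is not known. Higher reads as stronger inhibition (inferred: compounds with an IC50 in retests scored well above the rest). Size under these conditions: about 69,000 compounds, about 930 of them at 50% or above in at least one test.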

- Cc1cccc(OC2CN(C(=O)C3CC(=O)N(C4CC4)C3)C2)c1 (stereo not given) : LdMetRS: 2.5%; Mtb heat-shock: -11.34%
- CNCc1nc(-c2ccc3c(c2)OCO3)c[nH]1 : LdMetRS: 18.13%
- Cn1c(Cn2ncc(N3CCCCC3)cc2=O)nc2ccccc21 : LdMetRS: -2.872%; Mtb heat-shock: -21.82%
- [H][C@]12CCCC(OCc3cccnc3)[C@@]1([H])CN(C(=O)c1cccc(F)c1)C2 (stereo not given in full) : Mtb heat-shock: -20.87%
- Cc1ncsc1CN1C[C@@H]2COC[C@]2(C(=O)NC2CC(F)(F)C2)C1 : LdMetRS: 15.13%
- O=C(CCSc1ccccc1)NCCn1nc2ccccn2c1=O : LdMetRS: 2.857%; Mtb heat-shock: 13.17%
- O=C(COc1coc(CN2CCCC2)cc1=O)Nc1cc(Cl)ccc1Cl : LdMetRS: 22.12%; Mtb heat-shock: -56.62%
- CCc1cnc(C)nc1N(C)CCCc1cnn(C)c1 : LdMetRS: 15.59%; Mtb heat-shock: 18.25%
- CN(C)c1ccc(CCCNC(=O)NCC(O)c2cccs2)cc1 (stereo not given) : LdMetRS: 7.379%; Mtb heat-shock: -13.14%
- O=C(CC1CC2(CCN(CC3CC3)CC2)Oc2ccccc21)NC1CC1 (stereo not given) : LdMetRS: 17.93%
- O=C(Cn1cc(-n2cccc2)cn1)NCC1CCC1 : LdMetRS: 13.99%; Mtb heat-shock: 19.55%
- Cc1cncc(C(=O)N2CCCC3(CCCN3S(C)(=O)=O)C2)c1 (stereo not given) : LdMetRS: 7.904%; Mtb heat-shock: 7.796%
- FC(F)(F)c1cc(C2CCCN(c3ncccn3)C2)n2ccnc2n1 (stereo not given) : LdMetRS: 23.58%; Mtb heat-shock: 11.88%
- CCOCCCC(=O)NS(=O)(=O)c1ccc(C)s1 : LdMetRS: 1.449%; Mtb heat-shock: -3.375%
- CN(Cc1cccnc1)CC1CCOc2ccccc2C1 (stereo not given) : LdMetRS: 15.16%; Mtb heat-shock: -5.28%
- O=C(N[C@@H]1CCN(c2ncc(Cl)cc2Cl)C[C@H]1O)c1cnccn1 : LdMetRS: 12.09%; Mtb heat-shock: 5.43%
- CN(Cc1nccn1C)C1CCN(CCc2ccccn2)CC1 : LdMetRS: 14.53%; Mtb heat-shock: -2.133%
- Cc1c(C(C)NC(=O)Nc2ccc(F)cc2F)cnn1C (stereo not given) : LdMetRS: 5.385%; Mtb heat-shock: 4.204%
- [H][C@@]12C[C@@H](OCc3ccccc3)C[C@]1([H])CN(Cc1cccnc1)C2 : Mtb heat-shock: -10.82%
- CCOCCNCC1CCN(CCO)CC1 : LdMetRS: 4.57%; Mtb heat-shock: -22.7%
- [H][C@@]12COC[C@@H](CC(=O)N3CCCCO3)[C@]1([H])CN(S(C)(=O)=O)C2 : Mtb heat-shock: -8.209%
- O=C(O)C(F)(F)F.[H][C@@]12CCN(Cc3ccc4c(c3)OCO4)C[C@]1(C(=O)N(C)C)CCO2 : Mtb heat-shock: 4.753%
- CCc1ccc(-c2ncc3c(n2)N(C)CCN(CCN(C)C)C3=O)cc1 : LdMetRS: 12.38%; Mtb heat-shock: -12.19%
- CC(=O)N1N=C(c2ccccc2)OC1C(=O)NCC(=O)OC(C)(C)C (stereo not given) : LdMetRS: 15.28%; Mtb heat-shock: 21.44%
- Cc1nsc(NC(=O)N2CCCCC2CCO)n1 (stereo not given) : LdMetRS: 7.357%; Mtb heat-shock: 15.81%
- COCC(NC(=O)c1cnc(-c2ccncc2)nc1)c1ccnn1C (stereo not given) : LdMetRS: 12.68%; Mtb heat-shock: 11.53%
- COCCn1c(=O)n(C)c(=O)c2ccc(C3CCN(C(C)=O)CC3)nc21 : LdMetRS: 14.06%; Mtb heat-shock: 7.771%
- CN(C)c1ccc2c(c1)CN(C(=O)c1cnccn1)C2c1cnco1 (stereo not given) : LdMetRS: 2.899%; Mtb heat-shock: -10.37%
- O=C(NCc1ccco1)[C@H]1C[C@H]2OCC[C@H]2N(C(=O)c2ccnnc2)C1 : LdMetRS: 3.562%
- CCCOC(=O)C(C)Sc1nnnn1C1CCOCC1 (stereo not given) : LdMetRS: 3.519%; Mtb heat-shock: -35.28%
- CC(C)(C)c1nc(CN(Cc2cccs2)C2CCS(=O)(=O)C2)no1 (stereo not given) : LdMetRS: 11.81%; Mtb heat-shock: -2.627%
- Cc1cc(C)n2c(CCCNS(=O)(=O)c3ccccc3)nnc2n1 : LdMetRS: 10.03%; Mtb heat-shock: 7.792%
- Cc1ccc(Cl)cc1-n1nnnc1C1(N2CCCC2)CCCC1 : LdMetRS: 6.03%; Mtb heat-shock: 9.221%

The last 3 entries again:

Compound	LdMetRS	Mtb heat-shock
CC(C)(C)c1nc(CN(Cc2cccs2)C2CCS(=O)(=O)C2)no1 (stereo not given)	11.81%	-2.627%
Cc1cc(C)n2c(CCCNS(=O)(=O)c3ccccc3)nnc2n1	10.03%	7.792%
Cc1ccc(Cl)cc1-n1nnnc1C1(N2CCCC2)CCCC1	6.03%	9.221%